How the values were obtained:
[1] = Odor description by a group of experts comprising 10 members; settings: neat odorant
Experimental: The odor perception threshold, i.e. the ODT value (“odor detection threshold”), was determined using a dynamic olfactometer designated TO8 and a group of experts in accordance with the EN 13725 standard, in which an odorous air sample is diluted with clean air. The dilution is presented to the test persons (testers) for evaluation. The odor description was carried out by a group of experts comprising 10 members.

[2] = Olfactory comparison by perfumers of perfume oil with odorant solution versus with DPG only
Experimental: (§1) The perfume oil prepared was divided into two equal parts. To eliminate dilution effects, a first part of the perfume oil was mixed with 0.5% by weight of dipropylene glycol (DPG), based on the total amount of the first part of the perfume oil. To the second part of the perfume oil, 0.5 wt % 4H-3,1-benzoxathiin 10% DPG was added (i.e., a 10% solution of 4H-3,1-benzoxathiin in DPG), based on the total amount of the part of the perfume oil. The resulting compositions were olfactorily compared with each other.
as §1, with “spiked” for “mixed”, “0.1 wt. %” for “0.5% by weight of”, “0.1 wt.” for “0.5 wt”
as §1, with “2.5%” for “0.5%”, “2.5 wt.” for “0.5 wt”
as §1, with “exclude” for “eliminate”, “0.5% by weight of 2-methyl-4H-3,1-benzoxathiin 1%” for “0.5 wt % 4H-3,1-benzoxathiin 10%”, “1%” for “10%”, “2-methyl-4H-3,1-benzoxathiin” for “4H-3,1-benzoxathiin”
as §1, with “exclude” for “eliminate”, “1.5%” for “0.5%”, “1.5% by weight of 2-methyl-4H-3,1-benzoxathiin 1%” for “0.5 wt % 4H-3,1-benzoxathiin 10%”, “1%” for “10%”, “2-methyl-4H-3,1-benzoxathiin” for “4H-3,1-benzoxathiin”

SMILES: CC(C)(C)C1OCc2ccccc2S1 (stereo not shown) [2-tert-butyl-4H-3,1-benzoxathiin]
- Smell (odor description) [1]: Technical

SMILES: CC1OCc2ccccc2S1 (stereo not shown) [2-methyl-4H-3,1-benzoxathiin]
- Smell (odor description) [1]: Indole-like, cresol-like, animal-like
- Smell (odor description) ([1]; listed as (ii)): indole-like, cresol-like, and animalic
- Smell (odor description) ([1]; listed as drawing 12): Indole-like, cresol-like, animal-like
- olfactory effect of addition to perfume oil composition IV ([2]; 0.5% by weight of 1% solution in DPG, fabric softener perfume oil): gains fullness and character
- olfactory effect of addition to perfume oil composition V ([2]; 1.5% by weight of 1% solution in DPG, eau de toilette perfume oil): a very animalic character, reminiscent of ylang-ylang and cresol

SMILES: c1ccc2c(c1)COCS2 [4H-3,1-benzoxathiin]
- Smell (odor description) [1]: leather, smoke
- Smell (odor description) ([1]; listed as (i)): leathery-smoky
- Smell (odor description) ([1]; listed as drawing 11): Leather, smoke
- olfactory effect of addition to perfume oil composition II ([2]; 0.1% by weight of 10% solution in DPG, soap perfume oil): a strong floral complexity
- olfactory effect of addition to perfume oil composition I ([2]; 0.5% by weight of 10% solution in DPG, eau de toilette perfume oil): more volume and a soft leather note
- olfactory effect of addition to perfume oil composition III ([2]; 2.5% by weight of 10% solution in DPG, shampoo and shower gel perfume oil): a uniqueness and special character

SMILES: CC(C)C1OCc2ccccc2S1 (stereo not shown) [2-isopropyl-4H-3,1-benzoxathiin]
- Smell (odor description) [1]: salicylate-like, medicinal, fruity, fresh, Dynascone-like
- Smell (odor description) ([1]; listed as (iii)): salicylate-like, medicinal, fruity, fresh, and Dynascone-like
- Smell (odor description) ([1]; listed as drawing 13): Salicylate-like, medicinal, fruity, fresh, Dynascone-like.

SMILES: CC1(C)OCc2ccccc2S1 [2,2-dimethyl-4H-3,1-benzoxathiin]
- Smell (odor description) [1]: Technical

— US20240117269A1, “NOVEL AROMATIC MONOTHIOKETALS AS FRAGRANCE COMPOUNDS” (SYMRISE AG, priority 2019, published 2024)
